System: mSWI/SNF complexes
Assay: mSWI/SNF complex purification with HA-tagged baits and mass spectrometry (peptide counts)
Parameters: species or system human
Details: 293_HA-BRD7 bait purification, mass spectrometry
[1] = total peptides per co-purified protein
[2] = unique peptides per co-purified protein

B1: KRR1 (protein, UniProt Q13601 2-381, looked up)
KRR1 small subunit processome …: ASPSLERPEKGAGKSEFRNQKPKPENQDESELLTVPDGWKEPAFSKEDNPRGLLEESSFATLFPKYREAYLKECWPLVQKALNEHHVNATLDLIEGSMTVCTTKKTFDPYIIIRARDLIKLLARSVSFEQAVRILQDDVACDIIKIGSLVRNKERFVKRRQRLIGPKGSTLKALELLTNCYIMVQGNTVSAIGPFSGLKEVRKVVLDTMKNIHPIYNIKSLMIKRELAKDSELRSQSWERFLPQFKHKNVNKRKEPKKKTVKKEYTPFPPPQPESQIDKELASGEYFLKANQKKRQKMEAIKAKQAEAISKRQEERNKAFIPPKEKPIVKPKEASTETKIDVASIKEKVKKAKNKKLGALTAEEIALKMEADEKKKKKKK
B1 was tested, and the Total (total peptide count per identified protein) was 1 and the Unique (unique peptide count per identified protein) was 1.

B2: RPP30 (protein, UniProt P78346 2-268, looked up)
Ribonuclease P protein …: AVFADLDLRAGSDLKALRGLVETAAHLGYSVVAINHIVDFKEKKQEIEKPVAVSELFTTLPIVQGKSRPIKILTRLTIIVSDPSHCNVLRATSSRARLYDVVAVFPKTEKLFHIACTHLDVDLVCITVTEKLPFYFKRPPINVAIDRGLAFELVYSPAIKDSTMRRYTISSALNLMQICKGKNVIISSAAERPLEIRGPYDVANLGLLFGLSESDAKAAVSTNCRAALLHGETRKTAFGIISTVKKPRPSEGDEDCLPASKKAKCEG
Work on B2 yielded a Total [1] of 1 and a Unique [2] of 1.

B3: NOLC1 (protein, UniProt Q14978 1-699, looked up)
Nucleolar and coiled-body …: MADAGIRRVVPSDLYPLVLGFLRDNQLSEVANKFAKATGATQQDANASSLLDIYSFWLKSAKVPERKLQANGPVAKKAKKKASSSDSEDSSEEEEEVQGPPAKKAAVPAKRVGLPPGKAAAKASESSSSEESSDDDDEEDQKKQPVQKGVKPQAKAAKAPPKKAKSSDSDSDSSSEDEPPKNQKPKITPVTVKAQTKAPPKPARAAPKIANGKAASSSSSSSSSSSSDDSEEEKAAATPKKTVPKKQVVAKAPVKAATTPTRKSSSSEDSSSDEEEEQKKPMKNKPGPYSSVPPPSAPPPKKSLGTQPPKKAVEKQQPVESSEDSSDESDSSSEEEKKPPTKAVVSKATTKPPPAKKAAESSSDSSDSDSSEDDEAPSKPAGTTKNSSNKPAVTTKSPAVKPAAAPKQPVGGGQKLLTRKADSSSSEEESSSSEEEKTKKMVATTKPKATAKAALSLPAKQAPQGSRDSSSDSDSSSSEEEEEKTSKSAVKKKPQKVAGGAAPSKPASAKKGKAESSNSSSSDDSSEEEEEKLKGKGSPRPQAPKANGTSALTAQNGKAAKNSEEEEEEKKKAAVVVSKSGSLKKRKQNEAAKEAETPQAKKIKLQTPNTFPKRKKGEKRASSPFRRVREEEIEVDSRVADNSFDAKRGAAGDWGERANQVLKFTKGKSFRHEKTKKKRGSYRGGSISVQVNSIKFDSE
With B3 the Total [1] was 1 and the Unique [2] was 1.

B4: TAMM41 (protein, UniProt Q96BW9 1-452, looked up)
Phosphatidate …: MALQTLQSSWVTFRKILSHFPEELSLAFVYGSGVYRQAGPSSDQKNAMLDFVFTVDDPVAWHSKNLKKNWSHYSFLKVLGPKIITSIQNNYGAGVYYNSLIMCNGRLIKYGVISTNVLIEDLLNWNNLYIAGRLQKPVKIISVNEDVTLRSALDRNLKSAVTAAFLMLPESFSEEDLFIEIAGLSYSGDFRMVVGEDKTKVLNIVKPNIAHFRELYGSILQENPQVVYKSQQGWLEIDKSPEGQFTQLMTLPKTLQQQINHIMDPPGKNRDVEETLFQVAHDPDCGDVVRLGLSAIVRPSSIRQSTKGIFTAGKSFGNPCVTYLLTEWLPHSWLQCKALYLLGACEMLSFDGHKLGYCSKVQTGITAAEPGGRTMSDHWQCCWKLYCPSEFSETLPVCRVFPSYCFIYQSYRCIGLQKQQHLCSPSSSPSLRQLLPSVLVGYFCCYCHFSKW
Work on B4 yielded a Total [1] of 1 and a Unique [2] of 1.

B5: CACTIN (protein, UniProt Q8WUQ7 1-758, looked up)
Splicing factor Cactin: MGRDTRSRSRSAGRRGRRRQSQSGSRSRSRSHGRRNRRRREDEGRRRRRRRSRERRSDSEEERWQRSGMRSRSPPRPKWHSRDGSSQSDSGEEQSRGQWARRRRRARSWSPSSSASSSASPGRSQSPRAAAAALSQQQSLQERLRLREERKQQEELMKAFETPEEKRARRLAKKEAKERKKREKMGWGEEYMGYTNTDNPFGDNNLLGTFIWNKALEKKGISHLEEKELKERNKRIQEDNRLELQKVKQLRLEREREKAMREQELEMLQREKEAEHFKTWEEQEDNFHLQQAKLRSKIRIRDGRAKPIDLLAKYISAEDDDLAVEMHEPYTFLNGLTVADMEDLLEDIQVYMELEQGKNADFWRDMTTITEDEISKLRKLEASGKGPGERREGVNASVSSDVQSVFKGKTYNQLQVIFQGIEGKIRAGGPNLDMGYWESLLQQLRAHMARARLRERHQDVLRQKLYKLKQEQGVESEPLFPILKQEPQSPSRSLEPEDAAPTPPGPSSEGGPAEAEVDGATPTEGDGDGDGEGEGEGEAVLMEEDLIQQSLDDYDAGRYSPRLLTAHELPLDAHVLEPDEDLQRLQLSRQQLQVTGDASESAEDIFFRRAKEGMGQDEAQFSVEMPLTGKAYLWADKYRPRKPRFFNRVHTGFEWNKYNQTHYDFDNPPPKIVQGYKFNIFYPDLIDKRSTPEYFLEACADNKDFAILRFHAGPPYEDIAFKIVNREWEYSHRHGFRCQFANGIFQLWFHFKRYRYRR
Molecule B5 has a Total [1] of 1 and a Unique [2] of 1.

B6: ILVBL (protein, UniProt A1L0T0 1-632, looked up)
2-hydroxyacyl-CoA lyase 2: METPAAAAPAGSLFPSFLLLACGTLVAALLGAAHRLGLFYQLLHKVDKASVRHGGENVAAVLRAHGVRFIFTLVGGHISPLLVACEKLGIRVVDTRHEVTAVFAADAMARLSGTVGVAAVTAGPGLTNTVTAVKNAQMAQSPILLLGGAASTLLQNRGALQAVDQLSLFRPLCKFCVSVRRVRDIVPTLRAAMAAAQSGTPGPVFVELPVDVLYPYFMVQKEMVPAKPPKGLVGRVVSWYLENYLANLFAGAWEPQPEGPLPLDIPQASPQQVQRCVEILSRAKRPLMVLGSQALLTPTSADKLRAAVETLGVPCFLGGMARGLLGRNHPLHIRENRSAALKKADVIVLAGTVCDFRLSYGRVLSHSSKIIIVNRNREEMLLNSDIFWKPQEAVQGDVGSFVLKLVEGLQGQTWAPDWVEELREADRQKEQTFREKAAMPVAQHLNPVQVLQLVEETLPDNSILVVDGGDFVGTAAHLVQPRGPLRWLDPGAFGTLGVGAGFALGAKLCRPDAEVWCLFGDGAFGYSLIEFDTFVRHKIPVMALVGNDAGWTQISREQVPSLGSNVACGLAYTDYHKAAMGLGARGLLLSRENEDQVVKVLHDAQQQCRDGHPVVVNILIGRTDFRDGSIAV
Work on B6 yielded a Total [1] of 1 and a Unique [2] of 1.

B7: RBMX (protein, UniProt P38159 1-391, looked up)
RNA-binding motif protein, X …: MVEADRPGKLFIGGLNTETNEKALEAVFGKYGRIVEVLLMKDRETNKSRGFAFVTFESPADAKDAARDMNGKSLDGKAIKVEQATKPSFESGRRGPPPPPRSRGPPRGLRGGRGGSGGTRGPPSRGGHMDDGGYSMNFNMSSSRGPLPVKRGPPPRSGGPPPKRSAPSGPVRSSSGMGGRAPVSRGRDSYGGPPRREPLPSRRDVYLSPRDDGYSTKDSYSSRDYPSSRDTRDYAPPPRDYTYRDYGHSSSRDDYPSRGYSDRDGYGRDRDYSDHPSGGSYRDSYESYGNSRSAPPTRGPPPSYGGSSRYDDYSSSRDGYGGSRDSYSSSRSDLYSSGRDRVGRQERGLPPSMERGYPPPRDSYSSSSRGAPRGGGRGGSRSDRGGGRSRY
Work on B7 yielded a Total [1] of 1 and a Unique [2] of 1.

B8: ALG1 (protein, UniProt Q9BT22 1-464, looked up)
Chitobiosyldiphosphodolichol …: MAASCLVLLALCLLLPLLLLGGWKRWRRGRAARHVVAVVLGDVGRSPRMQYHALSLAMHGFSVTLLGFCNSKPHDELLQNNRIQIVGLTELQSLAVGPRVFQYGVKVVLQAMYLLWKLMWREPGAYIFLQNPPGLPSIAVCWFVGCLCGSKLVIDWHNYGYSIMGLVHGPNHPLVLLAKWYEKFFGRLSHLNLCVTNAMREDLADNWHIRAVTVYDKPASFFKETPLDLQHRLFMKLGSMHSPFRARSEPEDPVTERSAFTERDAGSGLVTRLRERPALLVSSTSWTEDEDFSILLAALEKFEQLTLDGHNLPSLVCVITGKGPLREYYSRLIHQKHFQHIQVCTPWLEAEDYPLLLGSADLGVCLHTSSSGLDLPMKVVDMFGCCLPVCAVNFKCLHELVKHEENGLVFEDSEELAAQLQMLFSNFPDPAGKLNQFRKNLRESQQLRWDESWVQTVLPLVMDT
With B8 the Total [1] was 1 and the Unique [2] was 1.

B9: TIMM23B (protein, UniProt Q5SRD1 1-188, looked up)
Mitochondrial import inner …: MEGGGGSGDKTTGVLAGFFGAGEAGYSHADLAGVPLTGMNPLCPYLNVDPRYLVQDTDEFILPTGANKTWGRFELAFFTIGGCCMTGAAFGAMNGLRLGLKETQNMAWSKPGNVQILNMVTRQGALWANTLGSLALLYSAFGVIIEKTRGAEDDLNTVAAGTMTGMLYKCTVSEMALDSPFCVLLSGS
B9 showed a Total [1] of 1 and a Unique [2] of 1.

B10: MSN (protein, UniProt P26038 2-577, looked up)
Moesin: PKTISVRVTTMDAELEFAIQPNTTGKQLFDQVVKTIGLREVWFFGLQYQDTKGFSTWLKLNKKVTAQDVRKESPLLFKFRAKFYPEDVSEELIQDITQRLFFLQVKEGILNDDIYCPPETAVLLASYAVQSKYGDFNKEVHKSGYLAGDKLLPQRVLEQHKLNKDQWEERIQVWHEEHRGMLREDAVLEYLKIAQDLEMYGVNYFSIKNKKGSELWLGVDALGLNIYEQNDRLTPKIGFPWSEIRNISFNDKKFVIKPIDKKAPDFVFYAPRLRINKRILALCMGNHELYMRRRKPDTIEVQQMKAQAREEKHQKQMERAMLENEKKKREMAEKEKEKIEREKEELMERLKQIEEQTKKAQQELEEQTRRALELEQERKRAQSEAEKLAKERQEAEEAKEALLQASRDQKKTQEQLALEMAELTARISQLEMARQKKESEAVEWQQKAQMVQEDLEKTRAELKTAMSTPHVAEPAENEQDEQDENGAEASADLRADAMAKDRSEEERTTEAEKNERVQKHLKALTSELANARDESKKTANDMIHAENMRLGRDKYKTLRQIRQGNTKQRIDEFESM
In the case of B10, the Total [1] is reported as 1 and the Unique [2] is reported as 1.

From US12729225B2, “Non-canonical SWI/SNF complex and uses thereof” (Dana-Farber Cancer Institute, Inc., priority 2018, dated 2026)
